For assay [1], the target named is FlagHA-tagged full-length Bid (wild type) (mouse) (UniProt P70444). The experiment in a line: co-IP; 293T cells co-transfected with a FlagHA-Bid construct and an Mcl-1 construct; whole cell lysate, immunoprecipitation with anti-Flag M2 agarose beads, Western blot.
Assay [2] addresses FlagHA-tagged full-length Bid M148T (helix-6 mutant) (mouse) (UniProt P70444). Described as above.

Chains of the proteins cited; added tags and fusions are not shown. Lines headed by an entry give the natural chain unless they say otherwise; changes in a name come on top.
UniProt P70444: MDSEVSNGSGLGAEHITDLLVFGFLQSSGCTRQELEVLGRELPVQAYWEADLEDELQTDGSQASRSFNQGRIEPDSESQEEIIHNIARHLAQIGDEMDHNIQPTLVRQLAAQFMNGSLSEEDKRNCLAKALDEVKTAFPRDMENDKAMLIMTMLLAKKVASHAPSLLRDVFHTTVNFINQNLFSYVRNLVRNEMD
UniProt P97287: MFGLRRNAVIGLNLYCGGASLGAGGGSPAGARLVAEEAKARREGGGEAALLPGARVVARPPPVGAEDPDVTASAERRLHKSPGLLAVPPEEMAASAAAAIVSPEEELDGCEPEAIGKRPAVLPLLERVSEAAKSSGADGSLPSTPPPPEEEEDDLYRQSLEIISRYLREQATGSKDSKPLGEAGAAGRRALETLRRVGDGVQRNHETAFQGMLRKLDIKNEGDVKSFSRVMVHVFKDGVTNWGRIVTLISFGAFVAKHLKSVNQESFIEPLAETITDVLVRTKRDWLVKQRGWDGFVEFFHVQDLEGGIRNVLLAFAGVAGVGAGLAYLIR

The source of these data is PMC6234033.

No constants are given. Whether binding was seen depends on the method and setting. In cells and extracts the contact can be indirect. Some binding calls cover weakened binding; strength is not graded here.

As for Mcl-1 (WT) (from UniProt P97287 1-331), the binding entry in assay [1] and in assay [2] was “binds” in each case.
